Laboratory results published in patent US5637682, “High-affinity oligonucleotide ligands to the tachykinin substance P” (NeXstar Pharmaceuticals, Inc.).
The exact form of at least one protein or probe is not confirmed. For some assays here: A negative result means that nothing was seen under these conditions.

Chains of the proteins cited; added tags and fusions are not shown. Lines headed by an entry give the natural chain unless they say otherwise; changes in a name come on top.
UniProt P20366: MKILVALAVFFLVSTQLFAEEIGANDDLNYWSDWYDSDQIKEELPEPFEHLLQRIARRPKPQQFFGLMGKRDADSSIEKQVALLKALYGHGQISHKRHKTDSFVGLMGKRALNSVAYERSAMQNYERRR

Legend:
Substance P (SP) = biological target: T1, Substance P (SP) (UniProt P20366); test: binding assay; details: equilibrium dialysis, 4 uM RNA, 2 uM SP; group representatives tested; synthetic protein
T1 sequence: RPKPQQFFGLM

Substance P fragment 1-4 = test: competition with a labelled probe; details: no significant binding at 32 uM (20-fold excess over SP); synthetic protein; protein details: synthetic peptide, Sigma; variant of Ligand A13

## GGGAGCUCAGAAUAAACGCUCAAAGGGCAACGCGGGCACCCCGACAGGUGCAAAACGCACCGACGCCCGGCCGAAGAAGGGGAUUCGACAUGAGGCCCGGAUCCGGC [Experiment A group 3/4 ligand (SEQ 21)]
Substance P (SP)
  binding result: binds

## GGGAGCUCAGAAUAAACGCUCAACGCACGACGCACCGUUACAGGGGGGGAAAAAGCCAACCCGAGCGCACGACGGACCGACGCUUCGACAUGAGGCCCGGAUCCGGC [Experiment A group 3/4 ligand (SEQ 20)]
Substance P (SP)
  binding result: binds

## GGGAGCUCAGAAUAAACGCUCAACGCACGACGCACCGUUACAGGGGGGGAAAAGCCAACCCGAGCGCACGACGGACCGACGCUUCGACAUGAGGCCCGGAUCCGGC [Experiment A group 3/4 ligand (SEQ 19)]
Substance P (SP)
  binding result: binds

## GGGAGCUCAGAAUAAACGCUCAACUUCCAAGGCAGUGGAAACCCUAAGGUCAAUAAUGACCAAUGACGCCGCUCCGGUUCAACCUUCGACAUGAGGCCCGGAUCCGGC [Ligand B28]
Substance P fragment 1-4
  binding result: no binding

## GGGAGCUCAGAAUAAACGCUCAACGCACGACGCACCGUUACAGGGGGGGAAGAACCAACCCGAGCGCACGACGGACCGACGCUUCGACAUGAGGCCCGGAUCCGGC [Experiment A group 3/4 ligand (SEQ 18)]
Substance P (SP)
  binding result: binds
